Assay [1] concerns the target metabotropic glutamate receptor 5 (mouse (endogenous in hippocampus and cortex)) (UniProt Q3UVX5). The experiment in a line: affinity purification with mass spectrometry; IP with anti-mGluR5 antibody from equal amounts (2 mg) of P2, microsome and P1 fractions of mouse hippocampus; SDS-PAGE and in-gel digestion, LC-MS/MS; empty bead control.
The target in assay [2] is metabotropic glutamate receptor 1, isoform a (mouse (endogenous in hippocampus and cortex)) (UniProt P97772). In words: affinity purification with mass spectrometry; reverse IP with monoclonal anti-mGluR1a antibody (BD Biosciences, clone G209-488) from mouse hippocampus extract, LC-MS/MS; non-mGluR1 antibody as negative control; >10-fold enrichment.
Assay [3] addresses metabotropic glutamate receptor 5 (mouse (endogenous in hippocampus and cortex)) (UniProt Q3UVX5). The experiment in a line: affinity purification with mass spectrometry; IP with anti-mGluR5 polyclonal antibody (10 ug, overnight, 4°C) from 1% n-dodecyl β-D-maltoside extracts (25 mM HEPES pH 7.4, 150 mM NaCl) of mouse hippocampus and cortex, Protein A/G agarose, FASP digestion, LC-MS/MS; mGluR5 knockout mice as negative control; filter: present in ≥3 of 4 WT IPs and ≥10-fold enriched.

The chains behind the UniProt entries cited, without tags or fusion partners. Residues count along the entry.
UniProt Q3UVX5, residues 19-1203: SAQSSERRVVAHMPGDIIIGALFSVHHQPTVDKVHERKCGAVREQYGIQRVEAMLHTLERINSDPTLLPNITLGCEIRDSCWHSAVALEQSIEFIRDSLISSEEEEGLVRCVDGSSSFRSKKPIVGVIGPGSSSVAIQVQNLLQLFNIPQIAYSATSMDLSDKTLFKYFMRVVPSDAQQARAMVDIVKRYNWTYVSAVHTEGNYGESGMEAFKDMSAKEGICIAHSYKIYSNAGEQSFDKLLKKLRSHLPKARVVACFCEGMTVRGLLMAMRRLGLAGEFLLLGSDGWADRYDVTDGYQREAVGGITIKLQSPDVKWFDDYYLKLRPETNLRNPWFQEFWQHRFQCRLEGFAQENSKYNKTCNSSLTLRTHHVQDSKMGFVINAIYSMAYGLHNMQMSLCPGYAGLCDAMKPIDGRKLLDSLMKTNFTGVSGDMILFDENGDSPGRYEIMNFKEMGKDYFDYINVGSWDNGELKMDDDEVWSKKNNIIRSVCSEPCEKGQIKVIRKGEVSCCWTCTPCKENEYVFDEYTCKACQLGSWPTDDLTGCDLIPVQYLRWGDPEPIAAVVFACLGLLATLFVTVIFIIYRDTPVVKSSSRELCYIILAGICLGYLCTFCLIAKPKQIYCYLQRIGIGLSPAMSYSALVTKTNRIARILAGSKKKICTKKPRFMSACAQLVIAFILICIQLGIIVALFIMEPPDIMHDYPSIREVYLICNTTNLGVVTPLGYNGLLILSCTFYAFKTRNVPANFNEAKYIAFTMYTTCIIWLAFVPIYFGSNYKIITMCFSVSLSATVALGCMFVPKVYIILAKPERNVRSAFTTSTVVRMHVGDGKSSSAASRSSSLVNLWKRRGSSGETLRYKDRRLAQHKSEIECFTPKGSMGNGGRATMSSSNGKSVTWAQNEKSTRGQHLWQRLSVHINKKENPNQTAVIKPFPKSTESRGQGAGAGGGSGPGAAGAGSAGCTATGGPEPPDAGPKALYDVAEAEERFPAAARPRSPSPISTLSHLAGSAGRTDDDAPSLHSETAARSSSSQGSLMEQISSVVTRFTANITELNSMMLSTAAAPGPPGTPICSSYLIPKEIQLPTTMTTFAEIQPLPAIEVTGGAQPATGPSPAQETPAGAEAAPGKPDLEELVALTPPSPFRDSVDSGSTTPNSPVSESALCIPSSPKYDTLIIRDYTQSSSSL
UniProt P97772, residues 21-1199: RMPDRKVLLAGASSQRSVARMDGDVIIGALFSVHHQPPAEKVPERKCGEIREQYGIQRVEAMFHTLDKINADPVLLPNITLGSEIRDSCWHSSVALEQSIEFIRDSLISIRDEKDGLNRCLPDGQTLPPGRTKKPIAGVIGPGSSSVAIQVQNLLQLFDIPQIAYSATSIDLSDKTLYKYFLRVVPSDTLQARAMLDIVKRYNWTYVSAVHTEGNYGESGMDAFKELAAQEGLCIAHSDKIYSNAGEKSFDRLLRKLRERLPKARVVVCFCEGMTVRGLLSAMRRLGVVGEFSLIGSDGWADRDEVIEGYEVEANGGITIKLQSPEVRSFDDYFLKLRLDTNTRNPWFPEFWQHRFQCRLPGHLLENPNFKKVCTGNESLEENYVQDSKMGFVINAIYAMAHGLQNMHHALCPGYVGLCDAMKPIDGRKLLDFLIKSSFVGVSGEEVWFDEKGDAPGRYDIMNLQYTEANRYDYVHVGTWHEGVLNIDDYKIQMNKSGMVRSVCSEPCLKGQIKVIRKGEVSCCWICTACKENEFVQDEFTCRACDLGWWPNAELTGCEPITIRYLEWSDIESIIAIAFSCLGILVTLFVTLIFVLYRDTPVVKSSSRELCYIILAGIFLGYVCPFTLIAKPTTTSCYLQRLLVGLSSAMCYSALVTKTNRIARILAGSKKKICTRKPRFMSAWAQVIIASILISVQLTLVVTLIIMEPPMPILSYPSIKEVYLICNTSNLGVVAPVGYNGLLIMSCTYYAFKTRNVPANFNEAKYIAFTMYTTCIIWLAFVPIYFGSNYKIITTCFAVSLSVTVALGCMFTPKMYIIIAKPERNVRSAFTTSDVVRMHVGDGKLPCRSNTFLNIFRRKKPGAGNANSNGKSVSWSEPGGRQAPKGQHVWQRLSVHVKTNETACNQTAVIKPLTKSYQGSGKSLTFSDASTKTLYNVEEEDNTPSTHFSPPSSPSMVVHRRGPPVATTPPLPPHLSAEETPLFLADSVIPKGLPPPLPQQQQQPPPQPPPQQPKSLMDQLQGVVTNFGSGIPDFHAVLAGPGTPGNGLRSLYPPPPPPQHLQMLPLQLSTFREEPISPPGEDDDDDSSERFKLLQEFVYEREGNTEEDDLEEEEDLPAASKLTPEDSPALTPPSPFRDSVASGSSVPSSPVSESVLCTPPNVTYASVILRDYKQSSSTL

The target in assay [4] is metabotropic glutamate receptor 1, isoform a (mouse (endogenous in hippocampus and cortex)), P97772. The experiment in a line: affinity purification with mass spectrometry; reverse IP with monoclonal anti-mGluR1a antibody (BD Biosciences, clone G209-488) from mouse hippocampus extract, LC-MS/MS; non-mGluR1 antibody as negative control; >10-fold enrichment. As to conditions: remark: other sources report otherwise.

For assay [5], the target named is metabotropic glutamate receptor 5 (mouse (endogenous in hippocampus and cortex)), Q3UVX5. In words: affinity purification with mass spectrometry; IP with anti-mGluR5 polyclonal antibody (10 ug, overnight, 4°C) from 1% n-dodecyl β-D-maltoside extracts (25 mM HEPES pH 7.4, 150 mM NaCl) of mouse hippocampus and cortex, Protein A/G agarose, FASP digestion, LC-MS/MS; mGluR5 knockout mice as negative control; filter: present in ≥3 of 4 WT IPs and ≥10-fold enriched. As to conditions: remark: other sources report otherwise.

These results are taken from paper PMC5129514.

These are yes or no findings as the source states them, for the method shown. Binding seen in cells or lysates may run through a third protein. A yes stands for co-enrichment or nearness to the bait. Other partners may have been found. For some assays here: No binding means not detected with the bait.

B1: Homer3 (protein, UniProt Q99JP6 1-356)
chain: MSTAREQPIFSTRAHVFQIDPTTKRNWIPAGKHALTVSYFYDATRNVYRIISIGGAKAIINSTVTPNMTFTKTSQKFGQWADSRANTVYGLGFASEQQLTQFAEKFQEVKEAARLAREKSQDGGEFTSTGLALASHQVPPSPLVSTNGPGEEKLFRSQSADTPGPTERERLKKMLSEGSVGEVQWEAEFFALQDSNQRLAGALREANAAATQWRQQLEVQRAEAELLRQRVAELEAQVAVEPVRAGEKEATSQSVEQLEARVQTKDQTLKNQSTGTREAPDTAEREETQQQVQDLETRNAELEQQLRSMECNLEEARAERERARAEVGRAAQLLDVRLFELSELREGLARLAEAAP
B1: the binding entry in assay [1], in assay [2] and in assay [3] was “binds” each time.

B2: Homer1 (protein, UniProt Q9Z2Y3 1-366)
chain: MGEQPIFSTRAHVFQIDPNTKKNWVPTSKHAVTVSYFYDSTRNVYRIISLDGSKAIINSTITPNMTFTKTSQKFGQWADSRANTVYGLGFSSEHHLSKFAEKFQEFKEAARLAKEKSQEKMELTSTPSQESAGGDLQSPLTPESINGTDDERTPDVTQNSEPRAEPTQNALPFPHSAGDRTQALSHASSAISKHWEAELATLKGNNAKLTAALLESTANVKQWKQQLAAYQEEAERLHKRVTELECVSSQANAVHSHKTELNQTVQELEETLKVKEEEIERLKQEIDNARELQEQRDSLTQKLQEVEIRNKDLEGQLSDLEQRLEKSQNEQEAFRSNLKTLLEILDGKIFELTELRDNLAKLLECS
For B2, the binding entry in assay [1] and in assay [3] was “binds” throughout.

B3: Homer1, Q9Z2Y3 1-366 (protein)
chain: B2 chain
On to B3, for which the binding entry in assay [4] is “no binding”.

B4: Homer2, Q9QWW1 1-354 (protein)
chain: MGEQPIFTTRAHVFQIDPSTKKNWVPASKQAVTVSYFYDVTRNSYRIISVDGAKVIINSTITPNMTFTKTSQKFGQWADSRANTVFGLGFSSELQLTKFAEKFQEVREAARLARDKSQEKTETSSNHSQESGCETPSSTQASSVNGTDDEKASHASPADTHLKSENDKLKIALTQSAANVKKWEMELQTLRESNARLTTALQESAASVEQWKRQFSICRDENDRLRSKIEELEEQCSEINREKEKNTQLKRRIEELESEVRDKEMELKDLRKQSEIIPQLMSECEYVSEKLEAAERDNQNLEDKVRSLKTDIEESKYRQRHLKGELKSFLEVLDGKIDDLHDFRRGLSKLGTDN
For the molecule B4, the binding result in assay [5] was “binds”; in assay [4], “no binding”.
